# Data as given in PubChem BioAssay AID1159578 (Peter MacCallum Cancer Centre, 2015).
# Test: 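siRNA pools altering how lymphatic endothelial cells close a scratch wound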 (primary screen)
# System: human lymphatic endothelial cells
# Reagents: siRNA pool against human genes, 40 nM
# Timing: 48 h after transfection
# Read-out: 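Cells stained with dye and imaged after a scratch; covered wound area and nuclei counted, duplicates averaged, migration set against mock wells and turned into a robust z-score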
# Direction: migration robust z-score: higher = faster migration into the scratch; nuclei per well: higher = more cells in the well
# Rule for the call: 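Pools averaging fewer than 3300 nuclei are never called; remaining pools count as changed when migration robust z lies outside -2 to 2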
# Meaning of the calls: active = migration changed; inactive = no migration change, or too few cells
# Here is one part, drawn at random, of about 18,000 reagents. About 1,030 of them (5.7%) were called active. 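Inactive calls also include pools with fewer than 3300 nuclei, whose migration was not assessed.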 The raw values are shown without normalisation. A number with no mark means an inactive call. Not all columns of the deposit are shown. No sequences are given here.
gene symbol,migration robust z-score,"nuclei per well, duplicate mean"
NDUFB7 (GeneID 4713),0.34,4784
PCBD1 (GeneID 5092),-0.9,5359
TRIM71 (GeneID 131405),0.75,5549
GDPD5 (GeneID 81544),2.34 (active),7014
SLC30A6 (GeneID 55676),0.28,5800
BACH1 (GeneID 571),0.91,4790
DARS2 (GeneID 55157),-0.44,5396
OR10G9 (GeneID 219870),-1.64,6010
TBL1X (GeneID 6907),0.57,5162
ATG4A (GeneID 115201),1.27,5360
SPAG6 (GeneID 9576),0.32,5260
EFCAB12 (GeneID 90288),-2.32 (active),5820
PIGW (GeneID 284098),-0.14,5750
LILRA4 (GeneID 23547),-0.98,5618
OR2V2 (GeneID 285659),-0.62,5285
ZDHHC4 (GeneID 55146),0.31,4626
IVL (GeneID 3713),0.08,5712
TCOF1 (GeneID 6949),-0.68,6223
DCLK3 (GeneID 85443),0.57,6134
TEX15 (GeneID 56154),-0.76,5284
SMARCA2 (GeneID 6595),-0.69,6365
CTC1 (GeneID 80169),-1.04,6840
PFKP (GeneID 5214),-1.25,5384
MCPH1 (GeneID 79648),-1.71,5752
MLLT1 (GeneID 4298),1.01,4362
TTC27 (GeneID 55622),-1.15,4192
KIAA0408 (GeneID 9729),-0.1,4985
TEX29 (GeneID 121793),0.39,5159
OVOS2P (GeneID 144203),0.46,6454
HMGA1 (GeneID 3159),0.21,5104
MMUT (GeneID 4594),1.01,5892
ZNF500 (GeneID 26048),-0.79,5562
TKTL1 (GeneID 8277),0.24,5128
DNAJB11 (GeneID 51726),-0.9,6241
PCDHA12 (GeneID 56137),0.93,5370
CFAP184 (GeneID 257236),0.74,5793
KIR2DL1 (GeneID 3802),-0.62,5619
GMPR (GeneID 2766),0.44,5290
AMBN (GeneID 258),0.31,5567
